{"source": "PubChem BioAssay AID1224830 (NIAID, 2016)", "assay": "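Host factors that control LPS-induced TNF expression in human macrophages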 (primary screen)", "system": "human THP-1 monocytic leukaemia cells, TNF dual-luciferase reporter clone, PMA-differentiated to macrophage-like cells", "reagent": "siRNA pool against human genes, 50 nM", "duration": "LPS for 4 h, given about 3 days after siRNA transfection", "treatment": "bacterial LPS (TLR4 ligand), 10 ng/ml", "measured": "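TNF firefly reporter luminescence divided by renilla, normalised to the plate median, then turned into a robust z-score for each replicate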", "direction": "TNF reporter robust z-score: higher = stronger TNF reporter response to LPS", "active means": "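Each well counts as active if its z-score is over 2.8 or under -1.5; controls are left without a call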", "note": "This is a random part of about 18,000 reagents. About 2,900 of them (16%) were called active. 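Calls are made per well; low scores hint the gene aids the LPS response, high scores that it dampens it.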 Repeated entries: four replicate wells of each siRNA pool."}
The first 4 records as a preview:
{"gene knocked down":"TBC1D3B (TBC1 domain family member 3B)","PubChem SID":"SID315464854","TNF reporter robust z-score":-1.7,"call":"active"}
{"gene knocked down":"TBC1D3B (TBC1 domain family member 3B)","PubChem SID":"SID315464854","TNF reporter robust z-score":-1.25,"call":"inactive"}
{"gene knocked down":"TBC1D3B (TBC1 domain family member 3B)","PubChem SID":"SID315464854","TNF reporter robust z-score":-1.05,"call":"inactive"}
{"gene knocked down":"TBC1D3B (TBC1 domain family member 3B)","PubChem SID":"SID315464854","TNF reporter robust z-score":-1.23,"call":"inactive"}

The list itself, from the first entry:
{"gene knocked down":"TBC1D3B (TBC1 domain family member 3B)","PubChem SID":"SID315464854","TNF reporter robust z-score":-1.7,"call":"active"}
{"gene knocked down":"TBC1D3B (TBC1 domain family member 3B)","PubChem SID":"SID315464854","TNF reporter robust z-score":-1.25,"call":"inactive"}
{"gene knocked down":"TBC1D3B (TBC1 domain family member 3B)","PubChem SID":"SID315464854","TNF reporter robust z-score":-1.05,"call":"inactive"}
{"gene knocked down":"TBC1D3B (TBC1 domain family member 3B)","PubChem SID":"SID315464854","TNF reporter robust z-score":-1.23,"call":"inactive"}
{"gene knocked down":"KRTAP5-4 (keratin associated protein 5-4)","PubChem SID":"SID315464431","TNF reporter robust z-score":-1.52,"call":"active"}
{"gene knocked down":"KRTAP5-4 (keratin associated protein 5-4)","PubChem SID":"SID315464431","TNF reporter robust z-score":-1.24,"call":"inactive"}
{"gene knocked down":"KRTAP5-4 (keratin associated protein 5-4)","PubChem SID":"SID315464431","TNF reporter robust z-score":-0.76,"call":"inactive"}
{"gene knocked down":"KRTAP5-4 (keratin associated protein 5-4)","PubChem SID":"SID315464431","TNF reporter robust z-score":-0.89,"call":"inactive"}
{"gene knocked down":"TGFBI (transforming growth factor beta induced)","PubChem SID":"SID315451852","TNF reporter robust z-score":1.68,"call":"inactive"}
{"gene knocked down":"TGFBI (transforming growth factor beta induced)","PubChem SID":"SID315451852","TNF reporter robust z-score":0.5,"call":"inactive"}
{"gene knocked down":"TGFBI (transforming growth factor beta induced)","PubChem SID":"SID315451852","TNF reporter robust z-score":0.81,"call":"inactive"}
{"gene knocked down":"TGFBI (transforming growth factor beta induced)","PubChem SID":"SID315451852","TNF reporter robust z-score":-0.12,"call":"inactive"}
{"gene knocked down":"PIGX (phosphatidylinositol glycan anchor biosynthesis class X)","PubChem SID":"SID315457306","TNF reporter robust z-score":1.42,"call":"inactive"}
{"gene knocked down":"PIGX (phosphatidylinositol glycan anchor biosynthesis class X)","PubChem SID":"SID315457306","TNF reporter robust z-score":1.44,"call":"inactive"}
{"gene knocked down":"PIGX (phosphatidylinositol glycan anchor biosynthesis class X)","PubChem SID":"SID315457306","TNF reporter robust z-score":0.68,"call":"inactive"}
{"gene knocked down":"PIGX (phosphatidylinositol glycan anchor biosynthesis class X)","PubChem SID":"SID315457306","TNF reporter robust z-score":2.04,"call":"inactive"}
{"gene knocked down":"OR56B1 (olfactory receptor family 56 subfamily B member 1)","PubChem SID":"SID315464450","TNF reporter robust z-score":0.1,"call":"inactive"}
{"gene knocked down":"OR56B1 (olfactory receptor family 56 subfamily B member 1)","PubChem SID":"SID315464450","TNF reporter robust z-score":-0.51,"call":"inactive"}
{"gene knocked down":"OR56B1 (olfactory receptor family 56 subfamily B member 1)","PubChem SID":"SID315464450","TNF reporter robust z-score":-0.79,"call":"inactive"}
{"gene knocked down":"OR56B1 (olfactory receptor family 56 subfamily B member 1)","PubChem SID":"SID315464450","TNF reporter robust z-score":0.31,"call":"inactive"}
{"gene knocked down":"IL22RA1 (interleukin 22 receptor subunit alpha 1)","PubChem SID":"SID315458663","TNF reporter robust z-score":1.89,"call":"inactive"}
{"gene knocked down":"IL22RA1 (interleukin 22 receptor subunit alpha 1)","PubChem SID":"SID315458663","TNF reporter robust z-score":0.63,"call":"inactive"}
{"gene knocked down":"IL22RA1 (interleukin 22 receptor subunit alpha 1)","PubChem SID":"SID315458663","TNF reporter robust z-score":1.5,"call":"inactive"}
{"gene knocked down":"IL22RA1 (interleukin 22 receptor subunit alpha 1)","PubChem SID":"SID315458663","TNF reporter robust z-score":1.31,"call":"inactive"}
{"gene knocked down":"CCDC93 (CCC complex scaffolding subunit CCDC93)","PubChem SID":"SID315457055","TNF reporter robust z-score":-1.83,"call":"active"}
{"gene knocked down":"CCDC93 (CCC complex scaffolding subunit CCDC93)","PubChem SID":"SID315457055","TNF reporter robust z-score":-1.44,"call":"inactive"}
{"gene knocked down":"CCDC93 (CCC complex scaffolding subunit CCDC93)","PubChem SID":"SID315457055","TNF reporter robust z-score":-1.39,"call":"inactive"}
{"gene knocked down":"CCDC93 (CCC complex scaffolding subunit CCDC93)","PubChem SID":"SID315457055","TNF reporter robust z-score":-0.99,"call":"inactive"}
{"gene knocked down":"TADA2A (transcriptional adaptor 2A)","PubChem SID":"SID315451736","TNF reporter robust z-score":0.75,"call":"inactive"}
{"gene knocked down":"TADA2A (transcriptional adaptor 2A)","PubChem SID":"SID315451736","TNF reporter robust z-score":0.53,"call":"inactive"}
{"gene knocked down":"TADA2A (transcriptional adaptor 2A)","PubChem SID":"SID315451736","TNF reporter robust z-score":0.25,"call":"inactive"}
{"gene knocked down":"TADA2A (transcriptional adaptor 2A)","PubChem SID":"SID315451736","TNF reporter robust z-score":1.34,"call":"inactive"}
{"gene knocked down":"SYT14 (synaptotagmin 14)","PubChem SID":"SID315463509","TNF reporter robust z-score":0.62,"call":"inactive"}
{"gene knocked down":"SYT14 (synaptotagmin 14)","PubChem SID":"SID315463509","TNF reporter robust z-score":-0.59,"call":"inactive"}
{"gene knocked down":"SYT14 (synaptotagmin 14)","PubChem SID":"SID315463509","TNF reporter robust z-score":-0.18,"call":"inactive"}
{"gene knocked down":"SYT14 (synaptotagmin 14)","PubChem SID":"SID315463509","TNF reporter robust z-score":0.49,"call":"inactive"}
{"gene knocked down":"RAET1E (retinoic acid early transcript 1E)","PubChem SID":"SID315461989","TNF reporter robust z-score":1.05,"call":"inactive"}
{"gene knocked down":"RAET1E (retinoic acid early transcript 1E)","PubChem SID":"SID315461989","TNF reporter robust z-score":3.2,"call":"active"}
{"gene knocked down":"RAET1E (retinoic acid early transcript 1E)","PubChem SID":"SID315461989","TNF reporter robust z-score":1.11,"call":"inactive"}
{"gene knocked down":"RAET1E (retinoic acid early transcript 1E)","PubChem SID":"SID315461989","TNF reporter robust z-score":1.58,"call":"inactive"}
{"gene knocked down":"KDM7A (lysine demethylase 7A)","PubChem SID":"SID315459830","TNF reporter robust z-score":-1.22,"call":"inactive"}
{"gene knocked down":"KDM7A (lysine demethylase 7A)","PubChem SID":"SID315459830","TNF reporter robust z-score":-1.16,"call":"inactive"}
{"gene knocked down":"KDM7A (lysine demethylase 7A)","PubChem SID":"SID315459830","TNF reporter robust z-score":-2.45,"call":"active"}
{"gene knocked down":"KDM7A (lysine demethylase 7A)","PubChem SID":"SID315459830","TNF reporter robust z-score":-2.25,"call":"active"}
{"gene knocked down":"ADGRL4 (adhesion G protein-coupled receptor L4)","PubChem SID":"SID315458840","TNF reporter robust z-score":-0.3,"call":"inactive"}
{"gene knocked down":"ADGRL4 (adhesion G protein-coupled receptor L4)","PubChem SID":"SID315458840","TNF reporter robust z-score":-0.91,"call":"inactive"}
{"gene knocked down":"ADGRL4 (adhesion G protein-coupled receptor L4)","PubChem SID":"SID315458840","TNF reporter robust z-score":-1.65,"call":"active"}
{"gene knocked down":"ADGRL4 (adhesion G protein-coupled receptor L4)","PubChem SID":"SID315458840","TNF reporter robust z-score":-0.92,"call":"inactive"}
